This is an account of results in PMC7672464.

Protein sequences, listed by entry. Tags and fused reporters are not part of them.
UniProt P26599: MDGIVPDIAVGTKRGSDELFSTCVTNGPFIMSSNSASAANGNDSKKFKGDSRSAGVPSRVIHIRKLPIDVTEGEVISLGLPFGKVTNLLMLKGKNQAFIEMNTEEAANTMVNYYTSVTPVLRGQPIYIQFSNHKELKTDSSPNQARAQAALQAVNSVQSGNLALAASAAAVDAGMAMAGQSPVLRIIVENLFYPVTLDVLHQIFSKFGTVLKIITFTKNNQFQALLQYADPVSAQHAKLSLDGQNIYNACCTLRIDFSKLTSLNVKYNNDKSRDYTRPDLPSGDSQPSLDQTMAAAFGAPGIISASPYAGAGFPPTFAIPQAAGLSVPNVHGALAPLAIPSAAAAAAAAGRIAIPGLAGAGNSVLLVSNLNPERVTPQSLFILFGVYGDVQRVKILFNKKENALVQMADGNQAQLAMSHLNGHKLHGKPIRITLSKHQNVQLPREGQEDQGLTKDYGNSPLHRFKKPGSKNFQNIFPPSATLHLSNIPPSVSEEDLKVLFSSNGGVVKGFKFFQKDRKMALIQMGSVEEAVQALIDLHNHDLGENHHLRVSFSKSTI

These are yes or no findings as the source states them, for the method shown. In cells and extracts the contact can be indirect. Some results given as binding are weak or reduced against the parent protein; the word gives no strength.

The target of test [1] is PTBP1 (polypyrimidine tract binding protein-1) (human (endogenous in HEK293T/17)) (UniProt P26599). Description: cross-linking + co-IP; cells incubated with 0.6 mM BS3 for 30 min, quenched with 1 M Tris-HCl (pH 7.5); lysate (nucleus and cytoplasm) immunoprecipitated with anti-PTBP1 or anti-HNRNPK antibody as for RIP, proteins dissociated from beads in Laemmli buffer, Western blotting.

Test [2] deals with HNRNPK (heterogeneous nuclear ribonucleoprotein K) (human (endogenous in HEK293T/17)) (UniProt P61978). Described as above.

On to “HNRNPK (heterogeneous nuclear ribonucleoprotein K) (from UniProt P61978 1-463)”, for which, in test [1], the binding result is on record as “binds”.

As for “PTBP1 (polypyrimidine tract binding protein-1) (from UniProt P26599 1-557)”, the binding entry in test [2] is “binds”.
